Source: PubChem BioAssay AID1273 (Columbia University Molecular Screening Center, 2008)
This is one part of the list. Further columns of the screen follow, without active or inactive calls. The list favours compounds with an active or inconclusive main result.

Assay: insulin gene promoter suppression in islet cells – imaging, TRM-6 cells (human fetal islet line), eGFP reporter, cell count, primary screen (AID 1273;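 further: cells exposed to compound for 48 h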)
Conditions: measured here: cell count, toxicity, at 2 µM, reporter expression induced with tamoxifen

SMILES | normalized cell count [%]
CSc1nnc(NC(=O)C2CCCCC2)s1 | 221
CC(=O)c1cccc(NC(=O)c2nccnc2C(=O)O)c1 | 135
CCN1C(=O)N[C@@H](c2ccc(Br)cc2)C(C(=O)OC)=C1C | 60.9
C/C(=N\NC(=O)c1c(C)nc2ccccn12)c1ccco1 | 55.1
CCC1CCCCN1C(=O)CSc1nnc(-c2ccco2)o1 (centres undefined) | 42.8
CN(Cc1ccccc1)C(=O)c1cnc2n(c1=O)CCS2 | 102
Cc1ccc(-c2nnn(CC(=O)N(CC(=O)NC(C)C)c3cnc4ccccc4c3)n2)o1 | 64.2
COc1cccc(C(=O)NC2=NCCS2)c1 | 103
Cc1ccc(C2=NC(=O)/C(=C/c3cc(O)c(O)c(Br)c3)S2)cc1 | 115
COc1cc(NC(=S)NCCN2CCOCC2)cc(OC)c1 | 118
O=C(CSc1nc2ccccc2[nH]1)Nc1c(F)cccc1F | 66.7
S=C(Nc1ccc2cn[nH]c2c1)Nc1ccccc1Cl | 171
CCCCn1c(C)nc2c(=O)n(C)c(=O)[nH]c21 | 101
N#Cc1ccc(C(=O)Nc2cccc3ncccc23)c(F)c1 | 128
CCNc1c2c(nc3ccccc13)CC(C)(C)CC2=O | 185
COc1ccc(Cn2nnnc2C(c2cccs2)N2CCOCC2)cc1 (centres undefined) | 0
O=C(c1cc2cc(Br)ccc2oc1=O)N1CCN(c2ccccn2)CC1 | 126
CC(Cc1cccs1)NC(=O)c1cccc(Cl)c1 (centres undefined) | 202
CCCC(=O)n1nc(-c2ccc(Cl)cc2)nc1SC | 113
Cc1noc(NS(=O)(=O)c2ccc(NC(=O)Nc3ccc(Cl)c(Cl)c3)cc2)c1C | 73.3
Oc1c(/C=N/Nc2cccc3cccnc23)ccc2ccccc12 | 154
Nc1ccc2nc(SCC(=O)N3CCOCC3)sc2c1 | 53.1
C/C(=N\Nc1nc2ccccc2[nH]1)c1ccc(N2CCOCC2)cc1 | 68.8
O=C(CN1C(=O)c2ccccc2C1=O)Nc1sc2c(c1C(=O)NCc1ccco1)CCCC2 | 29.5
O=C(CSc1oc(-c2ccco2)nc1S(=O)(=O)c1ccccc1)NCC1CCCO1 (centres undefined) | 88.9

SMILES | normalized cell count [%]
O=C(Cn1cnc2c(cnn2-c2ccc(F)cc2)c1=O)N1CCN(c2ccccc2)CC1 | 40.2
CC(c1ccccc1)N1CCc2[nH]c(=S)[nH]c(=O)c2C1 (centres undefined) | 60.3
CCOC(=O)c1ccc(NC(=O)c2cc3ccccc3o2)cc1 | 130
Cc1nn(C2CCS(=O)(=O)C2)c(Cl)c1/C=C/C(=O)OCC(=O)Nc1ccccc1OC(F)F (centres undefined) | 99.1
O=C(CN1CCOc2ccccc21)NCc1ccc(F)cc1 | 106
COc1cc2c(cc1OC)-c1cc(OCc3ccccc3Cl)nc(=O)n1CC2 | 32.9
O=c1c2ccccc2c(/C=N/c2ncn[nH]2)c(O)n1Cc1ccccc1 | 90
Cc1ccc(N2CC(O)=C(c3ccccc3)C2=N)cc1 | 20.6
CCc1ccc(S(=O)(=O)c2nnn3c2nc(NCCNC(C)=O)c2ccccc23)cc1 | 36.4
Cc1[nH]c2ccc(F)cc2c(=O)c1SC(F)(F)C(F)F | 80.2
CCCC(=O)NC(=S)Nc1ccc(Cl)cn1 | 123
CCOc1ccc2nc(-c3ccccc3)[nH]c2c1 | 118
c1ccc(Cn2nnc3c(N4CCc5ccccc5C4)ncnc32)cc1 | 76.6
Cc1cc(NC(=O)c2ccccc2-c2ccccc2C(=O)O)no1 | 75.1
Cc1cccc(NC(=S)N=Nc2c(O)n(CN3CCOCC3)c3ccccc23)c1C | 95
CCC(C)/C(C)=N/NC(=O)c1ccc(CSc2nc3ccccc3s2)cc1 (centres undefined) | 0
CC(=O)OC(C(=O)NCc1ccco1)c1cccnc1 (centres undefined) | 61.4
CCn1nc(C)c(NC(=O)CSc2nnc(-c3ccco3)n2C)c1C | 90.5
C/C(=C\c1ccco1)C1C(C#N)=C(N)OC2=C1C(=O)CC(C)(C)C2 (centres undefined) | 138
O=C(Nc1ccc(Cl)cc1)c1cc2nc(-c3ccco3)cc(C(F)(F)F)n2n1 | 46.3
CCCCNc1nc2ccccc2[nH]1 | 3.77
Cc1cc(C)cc(COn2ccnc2)c1 | 42.6
COc1ccc(-c2[nH]ncc2/C=C(\C#N)C(=O)NC2CC2)cc1 | 67.4
Cc1cc2c(cc1C)CSC(c1ccc3ccccc3c1O)SC2 | 104
CCN(CC)CCN(C(=O)c1ccc(S(=O)(=O)N2CCCCC2)cc1)c1nc2cc3c(cc2s1)OCO3 | 88.8

Of the compounds above, 2 have a COOH group.
SMILES | normalized cell count [%]
CC(=O)c1cccc(NC(=O)c2nccnc2C(=O)O)c1 | 135
Cc1cc(NC(=O)c2ccccc2-c2ccccc2C(=O)O)no1 | 75.1

The list continues.

SMILES | normalized cell count [%]
CCOC(=O)c1[nH]c2cc(OC)c(OC)cc2c1NC(=O)CN1CCN(c2ccc(OC)cc2)C(C)C1 (centres undefined) | 173
O=C(CCCc1cccs1)Nc1nc2c(s1)CCCC2 | 150
Cc1nc(C)c(-c2csc(Nc3cccnc3)n2)s1 | 146
CC(=O)Nc1ccc(NC(=O)c2cccc3c2-c2ccccc2C3=O)cc1 | 25
Cc1ccc(Cl)cc1N1CCN(C(=O)C2CCN(c3nnc(-n4cccc4)s3)CC2)CC1 | 121
CN1CCn2c1nc(N1CCOCC1)nc2=O | 149
Cn1cc(CN2CCc3ccccc3C2)c2ccccc21 | 54.4
Cc1ccc(N2CC(C(=O)NCc3cccnc3)CC2=O)cc1 (centres undefined) | 115
O=C(CN1CCN(Cc2ccc(Cl)cc2)CC1)N/N=C/C=C/c1ccccc1[N+](=O)[O-] | 66.5
CCOC(=O)[C@H](CCc1ccccc1)N[C@@H](C)C(=O)N1CCC[C@H]1C(=O)O | 126
Nc1cc(=O)[nH]c(=S)n1-c1cccc(C(F)(F)F)c1 | 89.1
Cc1ccc(-n2c(=O)[nH]cc(C(=O)Nc3ccc4c(c3)OCCO4)c2=O)cc1C | 135
COc1cccc(C(=O)Nc2nc(-c3ccncc3)cs2)c1 | 155
COc1cccc(-c2nnc(-c3ccc(C(F)(F)F)cc3)o2)c1OC | 70.4
O=C(O)C1CSC(c2ccccc2)N1C(=O)c1ccco1 (centres undefined) | 104
CCC(=O)n1nc(-c2ccc(OC)cc2)nc1SC | 167
O=c1oc(-c2cccs2)nc2sc3c(c12)CCCC3 | 81.9
CCCCOC(=O)c1nc[nH]c1C(=O)OCCCC | 119
Cn1c(Cc2ccccc2)nnc1SCc1ccc(C(=O)O)cc1 | 104
CCN(CC)C(=O)c1sc2c(c1C)c(=O)n(-c1ccc(C)c(C)c1)c(=O)n2CC(=O)NCC1CCCO1 (centres undefined) | 27.2
Cc1ccc(N=Nc2c(N)nn3c(C)cc(C)nc23)cc1 | 117
C=CCNc1nc(N2CCCC2)nc2ccccc12 | 104
COc1ccc(-c2nnc(N)s2)cc1 | 100
COc1ccc(C2=C(N)c3ccccc3C2=O)cc1 | 46.2
